Results reported in paper PMC3648552.
Results are given in words; binding and its absence hold for the method and conditions named. Binding seen in cells or lysates may run through a third protein. A yes stands for co-enrichment or nearness to the bait. Other partners may have been found.

The chains behind the UniProt entries cited, without tags or fusion partners.
UniProt O94763: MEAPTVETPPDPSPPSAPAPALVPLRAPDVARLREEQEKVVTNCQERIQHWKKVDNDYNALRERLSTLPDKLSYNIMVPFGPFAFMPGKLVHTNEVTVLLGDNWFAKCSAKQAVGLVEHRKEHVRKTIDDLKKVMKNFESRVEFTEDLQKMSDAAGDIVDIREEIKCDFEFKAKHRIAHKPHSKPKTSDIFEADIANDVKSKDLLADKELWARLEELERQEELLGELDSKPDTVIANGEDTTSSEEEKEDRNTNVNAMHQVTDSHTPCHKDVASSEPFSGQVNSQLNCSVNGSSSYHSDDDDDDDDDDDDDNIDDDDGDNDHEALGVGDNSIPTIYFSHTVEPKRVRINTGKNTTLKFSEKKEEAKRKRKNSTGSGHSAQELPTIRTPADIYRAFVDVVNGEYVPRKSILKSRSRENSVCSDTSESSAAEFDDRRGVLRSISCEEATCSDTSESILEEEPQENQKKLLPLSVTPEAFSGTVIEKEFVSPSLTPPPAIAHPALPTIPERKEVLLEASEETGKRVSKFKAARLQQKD
UniProt Q9NUG6: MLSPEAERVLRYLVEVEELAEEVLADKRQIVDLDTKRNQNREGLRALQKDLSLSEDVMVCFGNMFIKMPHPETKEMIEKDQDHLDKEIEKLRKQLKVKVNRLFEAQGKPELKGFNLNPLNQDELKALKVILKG
UniProt Q9UHV9: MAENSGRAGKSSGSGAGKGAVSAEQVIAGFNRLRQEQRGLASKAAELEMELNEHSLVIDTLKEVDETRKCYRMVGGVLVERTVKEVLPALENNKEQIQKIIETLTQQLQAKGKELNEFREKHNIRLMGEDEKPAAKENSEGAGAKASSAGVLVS
UniProt O15212: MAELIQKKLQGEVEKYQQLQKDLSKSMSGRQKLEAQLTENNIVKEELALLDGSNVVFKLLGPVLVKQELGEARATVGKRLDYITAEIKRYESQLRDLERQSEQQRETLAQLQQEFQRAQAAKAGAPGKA
UniProt Q9Y265: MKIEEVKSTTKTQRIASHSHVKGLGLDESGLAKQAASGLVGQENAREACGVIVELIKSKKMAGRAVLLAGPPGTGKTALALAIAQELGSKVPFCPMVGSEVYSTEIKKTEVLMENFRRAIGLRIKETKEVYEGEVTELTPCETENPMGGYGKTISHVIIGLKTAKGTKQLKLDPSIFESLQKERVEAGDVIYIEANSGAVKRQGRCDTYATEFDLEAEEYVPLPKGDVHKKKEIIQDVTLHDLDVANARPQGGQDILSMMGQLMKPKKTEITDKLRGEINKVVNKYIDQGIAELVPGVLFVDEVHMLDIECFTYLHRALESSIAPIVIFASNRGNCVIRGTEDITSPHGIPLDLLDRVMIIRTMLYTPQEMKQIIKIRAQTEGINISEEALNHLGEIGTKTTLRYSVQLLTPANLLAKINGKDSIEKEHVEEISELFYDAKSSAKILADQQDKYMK
UniProt Q96MX6: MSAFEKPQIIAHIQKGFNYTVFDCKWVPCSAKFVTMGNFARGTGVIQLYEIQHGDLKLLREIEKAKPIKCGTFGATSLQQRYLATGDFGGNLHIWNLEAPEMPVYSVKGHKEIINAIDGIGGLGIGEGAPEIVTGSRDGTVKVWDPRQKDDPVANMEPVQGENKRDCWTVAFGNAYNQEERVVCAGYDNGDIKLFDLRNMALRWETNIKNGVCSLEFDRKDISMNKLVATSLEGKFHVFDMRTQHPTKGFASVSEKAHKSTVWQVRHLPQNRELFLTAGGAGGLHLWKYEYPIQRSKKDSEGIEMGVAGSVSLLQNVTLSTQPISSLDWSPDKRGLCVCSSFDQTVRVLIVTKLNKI

biological target: FLAG-URI alpha (Unconventional prefoldin RPB5 Interactor), stably overexpressed in LNCaP cells (UniProt O94763); assay: affinity purification with mass spectrometry; FLAG-URI precipitated on FLAG-agarose beads from nuclear extracts of LNCaP-FLAG-URI cells (LNCaP-vector as control), washes with 300 and 150 mM KCl, eluted with 3xFLAG peptide, MudPIT; done twice

binding, binds:
P53 and DNA damage-Regulated Gene 1 (PDRG1), endogenous in LNCaP cells (from UniProt Q9NUG6 1-133)
PFDN2, endogenous in LNCaP cells (from UniProt Q9UHV9 1-154)
PFDN6, endogenous in LNCaP cells (from UniProt O15212 1-129)
RUVBL1, endogenous in LNCaP cells (from UniProt Q9Y265 1-456)
WDR92, endogenous in LNCaP cells (from UniProt Q96MX6 1-357)
